Results reported in the supplement of paper PMC11006884.
Only a part is listed here, and it is no random draw.

Chains of the proteins cited; added tags and fusions are not shown. Lines headed by an entry give the natural chain unless they say otherwise; changes in a name come on top.
UniProt Q9HCK8: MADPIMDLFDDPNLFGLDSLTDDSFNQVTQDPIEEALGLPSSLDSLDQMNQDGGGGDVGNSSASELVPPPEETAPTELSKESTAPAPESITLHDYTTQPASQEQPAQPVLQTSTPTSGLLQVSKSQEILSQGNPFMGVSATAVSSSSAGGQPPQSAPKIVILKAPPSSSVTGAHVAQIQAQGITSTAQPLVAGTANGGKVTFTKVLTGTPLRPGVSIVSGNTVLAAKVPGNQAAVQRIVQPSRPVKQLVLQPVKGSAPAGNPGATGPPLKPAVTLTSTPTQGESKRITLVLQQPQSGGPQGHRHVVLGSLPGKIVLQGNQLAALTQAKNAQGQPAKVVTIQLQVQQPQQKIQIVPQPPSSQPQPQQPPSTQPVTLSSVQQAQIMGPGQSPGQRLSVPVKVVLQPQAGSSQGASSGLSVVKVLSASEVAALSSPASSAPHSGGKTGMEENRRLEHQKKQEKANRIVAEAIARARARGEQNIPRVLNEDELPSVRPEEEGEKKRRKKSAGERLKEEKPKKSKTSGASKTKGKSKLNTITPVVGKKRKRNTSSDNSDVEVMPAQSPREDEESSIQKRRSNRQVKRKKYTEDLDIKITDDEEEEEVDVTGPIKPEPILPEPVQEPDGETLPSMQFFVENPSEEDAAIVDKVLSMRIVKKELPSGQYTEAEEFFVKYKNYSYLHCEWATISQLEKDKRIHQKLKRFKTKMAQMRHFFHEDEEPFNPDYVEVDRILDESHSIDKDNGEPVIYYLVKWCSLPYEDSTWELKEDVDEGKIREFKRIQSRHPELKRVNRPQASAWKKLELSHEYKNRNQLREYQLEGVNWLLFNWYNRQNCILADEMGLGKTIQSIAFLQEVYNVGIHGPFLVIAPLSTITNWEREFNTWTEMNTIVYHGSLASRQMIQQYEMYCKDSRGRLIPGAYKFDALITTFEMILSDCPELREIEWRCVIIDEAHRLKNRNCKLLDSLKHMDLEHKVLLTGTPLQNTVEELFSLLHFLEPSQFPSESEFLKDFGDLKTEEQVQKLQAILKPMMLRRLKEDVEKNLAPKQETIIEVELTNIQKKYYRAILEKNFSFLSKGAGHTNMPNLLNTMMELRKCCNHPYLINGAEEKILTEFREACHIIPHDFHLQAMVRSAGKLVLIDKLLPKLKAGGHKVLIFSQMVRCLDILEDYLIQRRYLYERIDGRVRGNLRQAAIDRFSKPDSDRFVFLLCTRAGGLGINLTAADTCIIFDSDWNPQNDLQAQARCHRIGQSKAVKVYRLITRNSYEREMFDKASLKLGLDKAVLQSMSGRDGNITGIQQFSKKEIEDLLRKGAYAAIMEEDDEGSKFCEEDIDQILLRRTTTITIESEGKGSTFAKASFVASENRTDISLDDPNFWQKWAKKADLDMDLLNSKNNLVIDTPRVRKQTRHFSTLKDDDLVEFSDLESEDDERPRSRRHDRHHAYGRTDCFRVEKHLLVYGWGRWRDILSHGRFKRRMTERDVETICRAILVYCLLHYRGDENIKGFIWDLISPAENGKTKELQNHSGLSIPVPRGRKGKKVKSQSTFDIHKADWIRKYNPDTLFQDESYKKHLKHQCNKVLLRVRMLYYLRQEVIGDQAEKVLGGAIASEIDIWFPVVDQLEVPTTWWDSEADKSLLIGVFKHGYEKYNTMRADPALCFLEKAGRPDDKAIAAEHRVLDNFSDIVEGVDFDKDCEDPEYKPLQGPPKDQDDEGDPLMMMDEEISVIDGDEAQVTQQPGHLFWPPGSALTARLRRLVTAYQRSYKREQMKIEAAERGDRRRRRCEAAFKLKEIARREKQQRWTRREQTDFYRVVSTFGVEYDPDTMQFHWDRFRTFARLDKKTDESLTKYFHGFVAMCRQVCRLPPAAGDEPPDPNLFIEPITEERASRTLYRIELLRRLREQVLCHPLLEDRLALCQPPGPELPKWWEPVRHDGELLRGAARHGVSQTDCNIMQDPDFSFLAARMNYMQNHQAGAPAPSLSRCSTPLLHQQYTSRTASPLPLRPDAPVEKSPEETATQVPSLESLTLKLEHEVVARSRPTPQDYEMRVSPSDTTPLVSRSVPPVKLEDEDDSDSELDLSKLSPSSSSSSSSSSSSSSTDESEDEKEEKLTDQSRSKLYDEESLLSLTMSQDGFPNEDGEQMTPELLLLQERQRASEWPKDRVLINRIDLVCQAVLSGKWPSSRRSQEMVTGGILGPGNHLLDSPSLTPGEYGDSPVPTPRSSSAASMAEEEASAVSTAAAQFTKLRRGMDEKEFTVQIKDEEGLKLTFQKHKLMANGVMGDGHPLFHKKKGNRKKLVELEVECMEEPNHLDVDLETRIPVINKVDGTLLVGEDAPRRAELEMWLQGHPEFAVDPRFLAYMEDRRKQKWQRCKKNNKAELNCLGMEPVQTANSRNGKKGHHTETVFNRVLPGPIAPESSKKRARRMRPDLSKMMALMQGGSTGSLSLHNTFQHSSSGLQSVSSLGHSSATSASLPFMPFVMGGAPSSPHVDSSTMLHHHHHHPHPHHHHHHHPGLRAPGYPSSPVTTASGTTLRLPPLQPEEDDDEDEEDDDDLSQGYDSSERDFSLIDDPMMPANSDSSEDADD
UniProt Q9NTJ3, whole entry, looked up: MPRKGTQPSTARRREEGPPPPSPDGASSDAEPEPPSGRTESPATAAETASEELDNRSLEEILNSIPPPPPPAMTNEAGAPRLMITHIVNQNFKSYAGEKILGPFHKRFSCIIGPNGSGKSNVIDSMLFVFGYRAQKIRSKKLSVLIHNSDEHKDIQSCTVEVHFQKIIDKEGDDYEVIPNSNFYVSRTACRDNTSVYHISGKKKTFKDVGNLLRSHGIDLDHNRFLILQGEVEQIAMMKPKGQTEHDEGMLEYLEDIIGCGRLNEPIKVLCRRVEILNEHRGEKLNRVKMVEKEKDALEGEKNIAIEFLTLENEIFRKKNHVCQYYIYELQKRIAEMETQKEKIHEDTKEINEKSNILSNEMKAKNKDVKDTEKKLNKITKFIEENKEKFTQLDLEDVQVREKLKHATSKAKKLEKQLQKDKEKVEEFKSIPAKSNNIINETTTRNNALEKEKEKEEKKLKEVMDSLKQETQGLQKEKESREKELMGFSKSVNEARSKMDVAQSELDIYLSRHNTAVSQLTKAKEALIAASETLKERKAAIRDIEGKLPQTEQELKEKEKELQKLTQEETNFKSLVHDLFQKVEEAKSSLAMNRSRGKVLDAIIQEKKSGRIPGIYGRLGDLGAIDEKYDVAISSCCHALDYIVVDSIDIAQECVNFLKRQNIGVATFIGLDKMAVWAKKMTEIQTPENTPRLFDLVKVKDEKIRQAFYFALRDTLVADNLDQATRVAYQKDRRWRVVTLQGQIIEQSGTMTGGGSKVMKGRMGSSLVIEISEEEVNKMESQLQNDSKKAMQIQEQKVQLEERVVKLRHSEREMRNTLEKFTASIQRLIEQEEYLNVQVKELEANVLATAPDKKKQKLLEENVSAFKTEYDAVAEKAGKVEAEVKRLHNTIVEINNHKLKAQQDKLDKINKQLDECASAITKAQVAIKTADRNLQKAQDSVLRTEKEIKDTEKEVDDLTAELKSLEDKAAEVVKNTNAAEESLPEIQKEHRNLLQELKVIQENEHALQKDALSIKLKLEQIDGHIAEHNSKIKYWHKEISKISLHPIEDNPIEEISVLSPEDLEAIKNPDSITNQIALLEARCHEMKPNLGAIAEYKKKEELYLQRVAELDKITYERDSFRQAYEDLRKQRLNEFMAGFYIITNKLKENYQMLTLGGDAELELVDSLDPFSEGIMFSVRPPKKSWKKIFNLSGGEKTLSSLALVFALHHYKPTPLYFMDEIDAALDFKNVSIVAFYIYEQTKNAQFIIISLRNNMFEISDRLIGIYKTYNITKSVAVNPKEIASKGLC
UniProt Q9H7E9: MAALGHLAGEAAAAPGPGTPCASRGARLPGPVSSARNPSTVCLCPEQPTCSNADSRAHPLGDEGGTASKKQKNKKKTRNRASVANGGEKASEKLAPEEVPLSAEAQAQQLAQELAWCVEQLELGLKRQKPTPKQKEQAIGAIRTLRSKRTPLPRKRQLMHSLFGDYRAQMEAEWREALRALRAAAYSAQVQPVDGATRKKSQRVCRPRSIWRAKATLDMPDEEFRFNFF
UniProt Q9NT62, whole entry, looked up: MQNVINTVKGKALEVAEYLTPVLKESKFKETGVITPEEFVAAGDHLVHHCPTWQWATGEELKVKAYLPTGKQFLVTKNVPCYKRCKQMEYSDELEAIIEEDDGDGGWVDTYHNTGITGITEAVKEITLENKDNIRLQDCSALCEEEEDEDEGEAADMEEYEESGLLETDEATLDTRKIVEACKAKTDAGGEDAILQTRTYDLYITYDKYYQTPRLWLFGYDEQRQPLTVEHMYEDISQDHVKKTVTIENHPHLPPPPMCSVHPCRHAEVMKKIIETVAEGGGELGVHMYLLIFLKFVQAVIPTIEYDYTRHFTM
UniProt Q9H4L4: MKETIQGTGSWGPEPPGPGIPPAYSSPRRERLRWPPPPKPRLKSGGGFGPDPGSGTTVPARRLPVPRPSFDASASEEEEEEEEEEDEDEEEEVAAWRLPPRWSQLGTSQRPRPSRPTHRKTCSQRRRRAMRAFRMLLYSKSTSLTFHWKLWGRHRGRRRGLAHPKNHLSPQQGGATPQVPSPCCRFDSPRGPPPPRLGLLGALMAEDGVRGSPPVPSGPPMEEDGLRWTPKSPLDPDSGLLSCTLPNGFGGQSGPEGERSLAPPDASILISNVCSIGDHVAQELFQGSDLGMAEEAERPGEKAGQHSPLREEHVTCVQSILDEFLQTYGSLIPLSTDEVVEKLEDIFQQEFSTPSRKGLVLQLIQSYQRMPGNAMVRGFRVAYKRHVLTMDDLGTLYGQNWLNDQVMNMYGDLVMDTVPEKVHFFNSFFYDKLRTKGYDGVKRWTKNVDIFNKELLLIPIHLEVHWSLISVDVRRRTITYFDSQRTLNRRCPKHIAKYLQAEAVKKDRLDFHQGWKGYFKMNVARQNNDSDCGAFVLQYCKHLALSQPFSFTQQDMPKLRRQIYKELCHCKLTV
UniProt Q9H4M9: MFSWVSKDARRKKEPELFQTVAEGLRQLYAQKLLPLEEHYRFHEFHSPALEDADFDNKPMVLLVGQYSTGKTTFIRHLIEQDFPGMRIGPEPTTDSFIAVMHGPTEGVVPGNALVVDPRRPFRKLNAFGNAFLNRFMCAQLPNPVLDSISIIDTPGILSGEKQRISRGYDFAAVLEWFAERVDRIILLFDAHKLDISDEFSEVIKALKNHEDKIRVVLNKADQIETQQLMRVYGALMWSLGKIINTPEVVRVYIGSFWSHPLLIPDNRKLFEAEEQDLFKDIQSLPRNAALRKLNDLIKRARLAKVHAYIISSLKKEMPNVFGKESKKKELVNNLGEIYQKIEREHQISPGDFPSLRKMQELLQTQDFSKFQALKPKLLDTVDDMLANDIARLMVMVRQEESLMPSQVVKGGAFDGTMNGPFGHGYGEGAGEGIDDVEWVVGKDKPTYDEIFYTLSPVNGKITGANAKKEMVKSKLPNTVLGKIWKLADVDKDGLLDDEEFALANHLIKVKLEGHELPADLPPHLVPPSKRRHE
UniProt Q9H3U1: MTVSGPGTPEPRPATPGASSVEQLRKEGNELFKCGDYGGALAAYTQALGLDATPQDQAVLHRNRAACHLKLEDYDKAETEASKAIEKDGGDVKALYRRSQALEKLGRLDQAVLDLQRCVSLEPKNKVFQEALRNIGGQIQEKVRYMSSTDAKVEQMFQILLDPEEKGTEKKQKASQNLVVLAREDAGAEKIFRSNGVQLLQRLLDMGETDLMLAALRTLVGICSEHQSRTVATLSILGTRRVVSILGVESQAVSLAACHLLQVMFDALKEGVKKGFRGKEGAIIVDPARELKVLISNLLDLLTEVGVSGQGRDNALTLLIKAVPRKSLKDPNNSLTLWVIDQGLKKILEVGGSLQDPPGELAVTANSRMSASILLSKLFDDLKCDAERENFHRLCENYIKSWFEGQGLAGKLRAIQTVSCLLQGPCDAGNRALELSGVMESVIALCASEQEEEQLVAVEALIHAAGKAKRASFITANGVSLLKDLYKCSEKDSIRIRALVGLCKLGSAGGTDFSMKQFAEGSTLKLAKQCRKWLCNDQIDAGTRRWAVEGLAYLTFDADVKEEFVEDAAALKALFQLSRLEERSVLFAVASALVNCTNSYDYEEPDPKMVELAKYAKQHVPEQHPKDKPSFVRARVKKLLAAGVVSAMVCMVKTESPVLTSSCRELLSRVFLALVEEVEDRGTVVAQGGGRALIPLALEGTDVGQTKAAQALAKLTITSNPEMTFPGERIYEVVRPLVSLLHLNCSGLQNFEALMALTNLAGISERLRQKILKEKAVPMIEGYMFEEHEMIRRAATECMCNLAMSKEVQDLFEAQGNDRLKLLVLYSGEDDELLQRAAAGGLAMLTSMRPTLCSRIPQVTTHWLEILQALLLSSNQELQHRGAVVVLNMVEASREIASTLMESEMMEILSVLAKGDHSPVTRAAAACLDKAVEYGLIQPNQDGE
UniProt Q9NR33: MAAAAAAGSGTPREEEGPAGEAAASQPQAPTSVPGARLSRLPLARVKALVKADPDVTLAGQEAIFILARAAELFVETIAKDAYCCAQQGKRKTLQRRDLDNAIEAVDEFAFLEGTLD

Compound: COC(=O)C#Cc1ccccc1 [methyl 3-phenylpropiolate]
Experiment: log2 ratio of iodoacetamide-alkyne labeling of the cysteine site, DMSO over compound (competition); higher = stronger covalent engagement of the cysteine by the compound, active = 1 or more
Conditions: 500 µM; treatment time 1 h; system: HEK293T cell lysate
In short: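 Reporter intensities give each cysteine's log2 competition ratio as the mean of control channels over the mean of compound channels. The samples were HEK293T lysate (2 mg/mL) given vehicle or electrophile (500 µM, 1 h, ambient temperature), then iodoacetamide alkyne (1 h), followed by click coupling to sCIP-TMT reagents, pooling, trypsin digestion overnight at 37 °C, streptavidin enrichment, acid elution, Orbitrap Eclipse LC-MS/MS with FAIMS and FragPipe quantification. Duplicate channels and three replicates were run, and cysteines quantified in only one replicate were discarded.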

log2 ratio of iodoacetamide-alkyne labeling, inactive:
POLE3 C51 (UniProt Q9NRF9) 0.0109, CHD8 C752 (UniProt Q9HCK8) -0.389, NIT2 C153 (UniProt Q9NQR4) 0.000181, CHD8 C1161 (UniProt Q9HCK8) 0.0972, MDN1 C579 (UniProt Q9NU22) -0.0663, SMC4 C271 (UniProt Q9NTJ3) -0.564, EIF4ENIF1 C767 (UniProt Q9NRA8) 0.377, C8orf33 C21 (UniProt Q9H7E9) 0.57, HELLS C169 (UniProt Q9NRZ9) 0.37, ATG3 C264 (UniProt Q9NT62) 0.294, SENP3 C243 (UniProt Q9H4L4) 0.523, DDX21 C682 (UniProt Q9NR30) 0.109, XPO5 C941 (UniProt Q9HAV4) 0.0901, EHD1 C138 (UniProt Q9H4M9) 0.114, MDN1 C4259 (UniProt Q9NU22) -0.182, GEMIN7 C121 (UniProt Q9H840) 0.108, ATP13A1 C336 (UniProt Q9HD20) 0.126, YTHDC2 C1265 (UniProt Q9H6S0) 0.697, CCDC86 C116 (UniProt Q9H6F5) 0.382, CHD8 C2378 (UniProt Q9HCK8) 0.191, KIF15 C862 (UniProt Q9NS87) 0.141, CDC42EP4 C313 (UniProt Q9H3Q1) 0.354, CELSR2 C2646 (UniProt Q9HCU4) 0.492, HELLS C836 (UniProt Q9NRZ9) 0.353, UniProt Q9H7C9_C122 0.113, WDR26 C656 (UniProt Q9H7D7) 0.137, CHD8 C1947 (UniProt Q9HCK8) 0.761, UNC45A C34 (UniProt Q9H3U1) 0.0992, MBIP C243 (UniProt Q9NS73) 0.661, RNPEP C223 (UniProt Q9H4A4) 0.512, UPF2 C578 (UniProt Q9HAU5) 0.35, GRPEL1 C124 (UniProt Q9HAV7) 0.145, UNC45A C745 (UniProt Q9H3U1) 0.172, XPNPEP1 C342 (UniProt Q9NQW7) -0.0873, POLE4 C84 (UniProt Q9NR33) -0.0179, PREB C128 (UniProt Q9HCU5) 0.545, BIRC6 C1357 (UniProt Q9NR09) -0.0125
